Data as given in PubChem BioAssay AID652272 (Drosophila RNAi Screening Center, 2013).
The screen tested about 21,000 reagents; this is a random part of those that have a named target and a result. Over the whole deposit, 503 (2.4%) got an active call. 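Raw plate light values, not normalised; calls rest on replicate z-scores that were not deposited; hits include reporter decreases as well as increases.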 The numbers tell different reagents against one gene apart. A plus sign joins genes that one reagent is predicted to hit. The record does not give: the amount of reagent, the time to read-out.

- Aim: 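Genes whose knock-down decreases or increases Hedgehog reporter output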 (primary screen)
- Cells: Drosophila clone 8 (Cl8) cells
- Reagent: long dsRNA against Drosophila genes
- Measured: 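Plate reader light from a firefly reporter under a ptc promoter fragment that responds to Hedgehog, with Renilla light as transfection reference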
- Scale: firefly Hh reporter signal: higher = more ptc reporter light; Renilla reference signal: higher = more Renilla control light
- Call rule: 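Called a hit if the two-replicate mean z-score lies below -2 or above +3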
- Calls: active = hit: reporter lowered or raised; inactive = not a hit

Target gene	dsRNA no.	firefly Hh reporter signal, replicate 1	firefly Hh reporter signal, replicate 2	firefly Hh reporter signal, replicate 3	Renilla reference signal, replicate 1	Renilla reference signal, replicate 2	outcome
Zip88E (Zinc/iron regulated transporter-related protein 88E)	1	98451	1.01e5		1968	2292	inactive
MTA1-like (Metastasis associated 1-like)	1	63237	66284		2384	2049	inactive
Prx6c + CG12896 + Prx6b	1	1.12e5	56696		2995	5605	inactive
AhcyL2 (Adenosylhomocysteinase like 2)	1	64208	74615		1480	2032	inactive
Ir87a (Ionotropic receptor 87a)	1	1.50e5	1.20e5		5229	3937	inactive
CG4325	1	79568	1.51e5		2064	4844	inactive
IscU (Iron-sulfur cluster assembly enzyme)	1	60663	73411		2192	2226	inactive
CG12814	1	1.19e5	79539		5378	3448	inactive
CG12814	2	57994	98099		1960	2891	inactive
Tsf3 (Transferrin 3)	1	1.18e5	59524		4693	2336	inactive
agt (O-6-alkylguanine-DNA alkyltransferase)	1	75424	78098		2376	2457	inactive
CG17996 + Tsen2	1	67210	54818		1604	5419	inactive
S-Lap4 (Sperm-Leucylaminopeptidase 4)	1	53272	54634	61324	3864	4887	inactive
wuc (Wake-up-call)	1	57819	54760		1337	4013	inactive
Mrgn1 (Mahogunin ring finger 1)	1	90560	68137		1785	822	inactive

No new results follow: an excerpt of the list.
Target gene	dsRNA no.	firefly Hh reporter signal, replicate 1	firefly Hh reporter signal, replicate 2	firefly Hh reporter signal, replicate 3	Renilla reference signal, replicate 1	Renilla reference signal, replicate 2	outcome
MTA1-like (Metastasis associated 1-like)	1	63237	66284		2384	2049	inactive
Prx6c + CG12896 + Prx6b	1	1.12e5	56696		2995	5605	inactive
AhcyL2 (Adenosylhomocysteinase like 2)	1	64208	74615		1480	2032	inactive

Further results follow:
Target gene	dsRNA no.	firefly Hh reporter signal, replicate 1	firefly Hh reporter signal, replicate 2	firefly Hh reporter signal, replicate 3	Renilla reference signal, replicate 1	Renilla reference signal, replicate 2	outcome
Tango1 (Transport and Golgi organization 1)	1	57725	44756		2827	1539	inactive
ro (rough)	1	95859	58864		3475	1504	inactive
Ns4 (Nucleostemin 4)	1	1.93e5	1.23e5		6389	5042	inactive
CG12923	1	78038	60432		2098	4812	inactive
kto (kohtalo)	1	72019	61136		3098	2705	inactive
Dok (Downstream of kinase)	1	57585	1.03e5		2251	3928	inactive
amd (alpha methyl dopa-resistant)	1	1.03e5	77737		2450	7347	inactive
amd (alpha methyl dopa-resistant)	2	85482	47824		2240	5158	inactive
